Results are given in words; binding and its absence hold for the method and conditions named. In cells and extracts the contact can be indirect. A yes stands for co-enrichment or nearness to the bait. Other partners may have been found.
Molecular target: Hsp90^E36A-GFP (C-terminally GFP-tagged E36A trap mutant of C. albicans Hsp90) (C. albicans) (UniProt P46598)
Test: affinity purification with mass spectrometry; single-step GFP-trap resin purification of Hsp90^E36A-GFP from C. albicans lysate; cells in YPD at 30°C untreated, with 8 μg/mL fluconazole or with 100 nM caspofungin; SAINTexpress against Eno1-GFP control, BFDR 2%

Binder	binding
Rvb1 (C. albicans), endogenous (protein, UniProt Q5A0W7 1-458) MVQITEVKENQSSRESRTAAHTHIKGLGLNEQGIAKPIEGGFVGQNEAREACGIIVDLIKSKKMSGKAVLIAGPPATGKTALALAISQELGPKVPFCPIVGSELYSAEVKKTSALMENFRRAIGLRIKETKEVYEGEVIELTPEEAENPLGGYGKTISHVIVGLKSAKGTKTLRLDPVIYESIQKERVTIGDVIYIEANTGAVKRVGRSDAYATEFDLEAEEYVPLPKGEVHKKKEIVQDVTLHDLDVANARPQGGQDVLSMMGQLLKPKKTEITDKLRTEVNKVVSKYIEQGVAELVPGVLFIDEVNMLDMEIFTYLNRALESSIAPIVVLASNRGLTTVRGSDDGVKAPHGCPPDLIDRLLIVRTLPYNQEEIKTIIGKRASLEGLTLTDDALEKLSKQGLTTSLRYAVQLLTPAGVLSTTAGRSEITVQDIEECEFLFLDSRRSTKVLQETKTFL	binds
Ulp1 (C. albicans), endogenous (enzyme, UniProt Q5AEB5 1-351) MASVIYDEHKGYCVTNEPINKVNENEGIINNGLQTLPWDLYLPEETDDLSSASDNTSTSTPKPLTKQEKREAKQLKKINASRRRKLKREQELDNKGESKFPDFKPYLAKQELKALFSSIVKSTCQNSKADAKILQYHSIALYKSDLEHILPGEWLNDNNISLIYELIIQIFIKHGRKFSNQIQLLFPSLIQLLMHFPDDVESLLPVDELKSSKLIFLPINFIDEMDVDLEDANNGDHWSLGVLSLLDNTLYVYDSMQIDDDEISEIQLKKLVQKLQSCNTIVHGKLKVRHLKCDQQQNFDDCGVYVIMITCYLINQLLHQDEMSLDISRVKFNPLDARLHIMKLISRLIKE	binds
Kre30 (C. albicans), endogenous (protein, UniProt Q5A2T2 1-609) MSISASKAKREQKRLEREAKKAAVGKSTKKTKKQAEKDAAEDEVEGAEEQIAKMKLQTDEHGLSDRVTTGVLESLETSRDIKLSSVSLLFHGKVLIQDSTLELNYGRRYGLLGENGCGKSTLMKSIAAREFPIPEHIDIYLLNEPAEATEYSALEYVVREAEHEMKRLEDLVEELIVKEGPECPALEGLYEKIDEMDPSTFESRAAIILTGLGFNSVTIKKKTKDMSGGWRMRVALAKALFVKPTLLLLDDPTAHLDLAACVWLEEYLKRFDRILILVSHSQDFLNGVCTNMIDMRLKLLTTYGGNYDSYVKTRAELETNQMKQYNKQQEEIAHIKKFIASAGTYANLVRQAKSRQKILDKMEADGLIQPVVPDKVFTFRFPEVEKLPPPVLAFDDMSFSYSGKPEDNLYEHLDIGIDMDSRVALVGPNGVGKSTLLKLFQGKLQPQTGRVIQHTHIKLGVYSQHSADQLDLTKSPLEFVRDKFANISQDYQYWRGQLGRYGLSGEAQTAQMATLSEGQRSRVVFALLALEGPNLILLDEPTNGLDLGTIDSLADAINAFNGGVVVVSHDFRLLDKVAKDIFVIENKTATRWNGSILDYKKSLASKVVL	binds
Pab1 (C. albicans), endogenous (protein, UniProt Q5AI15 1-629) MSAAETNQLQESMEKLNIGSTTEEQSAAAATTTADQSAEEQGESSGVAENSASLYVGELNPSVNEATLFEIFSPIGQVSSIRVCRDAVSKKSLGYAYVNYHKYEDGEKAIEELNYNPIEGRPCRIMWSQRDPSARRSGDGNIFIKNLHPAIDNKALHDTFSAFGKILSCKVATDEFGQSKCFGFVHYETAEAAEAAIENVNGMLLNDREVFVGKHISKKDRESKFEEMKANFTNIYVKNIDLNYSEESFEKLFSPFGKITSIYLEKDQDGKSKGFGFVNFEDHESAVKAVEELNDKEINGQKIYVGRAQKKRERLEELKKQYEAVRLEKLAKYQGVNLFVKNLDDTIDSEKLEEEFKPFGTITSAKVMVDEAGKSKGFGFVCFTTPEEATKAITEMNTRMINGKPLYVALAQRKDVRRSQLEQQIQARNQMRMQNAAAGGLPGQFIPPMFYGQQGFFPPNGRGNAPYPGPNPQMMMRGRGQPFPEQWPRPGPNGQPVPVYGIPPQFQQDFNGQNMRPQQQQQQQPRGGYYPNRNQTSKRDLAAIISSVPQDQQKRILGEELYPKIVATGKAQEPEAAGKITGMMLGLENQEILDLLDDDELFNNHFEDALTAFEEYKKSEAAGNAEEQA	binds
Rvb2 (C. albicans), endogenous (protein, UniProt Q5AGZ9 1-498) MATNTITTTKVTTTTTDVTGLSLIAAHSHISGLGLDDNLQPKENAQGMVGQLSARKAAGVILKMVEAGKIAGRAVLIAGPPSTGKTAIAMGLSQSLGNQVPFTALAASEVFSLELSKTEALTQAFRKSIGIKIKEETEIIEGEVVEIQIDRTITGGHKQGKLTIKTTDMETIYELGNKMIEGLTKEKVLAGDVISIDKASGKITKLGRSFTRARDYDAMGPETKFVQCPEGELQKRKEVVHTISLHEIDVINSRQQGFLALFSGDTGEIRPEVRDQINTKVAEWKEEGKAEIVPGVLFIDEVHMLDIECFSFINRALEDEFSPIVIMATNRGVSRIRGTDYKSPHGMPMDLLDRSITIHTTSYTADEIRTILSIRATEEEVELSGDALALLTKIGQETSLRYAANLISVSQQIALKKKNNTVDLQDIKRAYMLFLDSDRSVQYLEENADQYIDDYGRVTIGQESTDGSTQPQAKQQEVAQPEATQPQSQPEDDKMETD	binds

Reference: publication PMC6638986
